Test system: C. elegans strain TJ1060
Test: Testing for departure from temporal rescaling (K-S test on AFT residuals of lifespan data)
Design: species or system Caenorhabditis elegans
Conditions: 8 independent experiments combined; p<0.01

| SMILES | consistency of lifespan increase with temporal scaling model (AFT) |
| --- | --- |
| Clc1cccc(CNC2=Nc3ccccc3NC23CCNCC3)c1 [Lip-1, N-[(3-chlorophenyl)methyl]-spiro[piperidine-4,2′(1′H)-quinoxalin]-3′-amine] | not consistent with the temporal scaling model |
| O=C(N/N=C/c1ccccc1O)c1ccncc1 [SIH, Salicylaldehyde isonicotinoyl hydrazone] | not consistent with the temporal scaling model |
